Reference: patent US20110295343A1, “NEAR-INFRARED ELECTROMAGNETIC MODIFICATION OF CELLULAR STEADY-STATE MEMBRANE POTENTIALS” (priority 2008, published 2011)
At least one compound was matched to its structure with a doubt left.

How the values were obtained:
MRSA = test: CFU counts of MRSA plated on agar with antibiotic after sub-lethal NIMELS laser (Examples IX-XII); type: cell-based, Staphylococcus aureus; settings: antibiotic at resistant MIC just below effectiveness level
From the text: The following parameters illustrate the general bacterial methods according to the invention as applied to MRSA for the in vitro Experiments V and VIII-XII.
The null hypothesis is μ1−μ2=0 and μ1−μ3=0 where:
a) μ1 is sub-lethal dosimetry from the NIMEL laser system on MRSA as a control and;
The null hypothesis is μ1−μ2=0 and μ1−μ3=0 where: • a) μ1 is sub-lethal dosimetry from the NIMEL laser system on MRSA as a control and; • b)μ2 is the same sub-lethal dosimetry from the NIMEL laser system on MRSA with the addition of tetracycline at resistant MIC just below effectiveness level and; • c) μ3 is the same sub-lethal dosimetry from the NIMEL laser system on MRSA with the addition of rifampin at resistant MIC just below effectiveness level.
The null hypothesis is μ1−μ2=0 and μ1−μ3=0 where: a) μ1 is sub-lethal dosimetry from the NIMEL laser system on MRSA as a control and; b)μ2 is the same sub-lethal dosimetry from the NIMEL laser system on MRSA with the addition of methicillin at resistant MIC just below effectiveness level and; […]

C. albicans = test: Colony counts of C. albicans plated with Lamisil or Sporanox after sub-lethal NIMELS laser (Example XIII); type: cell-based, Candida albicans; settings: 0.5 ug/ml
Procedure: Similar cell culture and kinetic protocols were performed for all NIMELS irradiation with E. coli and C. albicans in vitro tests. […] A standardized suspension was aliquoted into selected wells in a 24-well tissue culture plate. Following laser treatments, 100 μL was removed from each well and serially diluted to 1:1000 resulting in a final dilution of 1:5×10^6 of initial culture. An aliquot of each final dilution were spread onto separate plates. The plates were then incubated at 37° C. for approximately 16-20 hours. Manual colony counts were performed and recorded.
The null hypothesis is μ1−μ2=0 and μ1−μ3=0 where: a) μ1 is sub-lethal dosimetry ftom the NIMEL laser system on C. albicans as a control and; b) μ2 is the same sub-lethal dosimetry from the NTMEL laser system on C. albicans with the addition of Sporanos at resistant MIC just below effectiveness level and; c) μ3 is the same sub-lethal dosimetry from the NIMEL laser system on C. albicans with the addition of Lamisil at resistant MIC just below effectiveness level.

| Structure (SMILES) | effect of sub-lethal NIMELS irradiation on antibiotic action against MRSA colonies (words) (MRSA) | effect of sub-lethal NIMELS irradiation on antibiotic action against MRSA colonies (words) (MRSA; listed as tetracycline) | effect of sub-lethal NIMELS irradiation on antifungal action against C. albicans colonies (C. albicans) |
| --- | --- | --- | --- |
| CN(C)[C@@H]1C(O)=C(C(N)=O)C(=O)[C@@]2(O)C(O)=C3C(=O)c4c(O)cccc4[C@@](C)(O)[C@H]3C[C@@H]12 [Tetracycline] | successful reversal of MRSA resistance | resistance to tetracycline is being reversed | – |
| CCC(C)n1ncn(-c2ccc(N3CCN(c4ccc(OCC5COC(Cn6cncn6)(c6ccc(Cl)cc6Cl)O5)cc4)CC3)cc2)c1=O (stereo not drawn) [Sporanox, itraconazole] | – | – | potentiated by a sub-lethal dosimetry irradiation |
